For five molecules, binding results are on record in paper PMC11427701.

Sequences of proteins named here, by UniProt entry; tags and fusion partners are left off. Residues count along the entry.
UniProt P38646, residues 47-679: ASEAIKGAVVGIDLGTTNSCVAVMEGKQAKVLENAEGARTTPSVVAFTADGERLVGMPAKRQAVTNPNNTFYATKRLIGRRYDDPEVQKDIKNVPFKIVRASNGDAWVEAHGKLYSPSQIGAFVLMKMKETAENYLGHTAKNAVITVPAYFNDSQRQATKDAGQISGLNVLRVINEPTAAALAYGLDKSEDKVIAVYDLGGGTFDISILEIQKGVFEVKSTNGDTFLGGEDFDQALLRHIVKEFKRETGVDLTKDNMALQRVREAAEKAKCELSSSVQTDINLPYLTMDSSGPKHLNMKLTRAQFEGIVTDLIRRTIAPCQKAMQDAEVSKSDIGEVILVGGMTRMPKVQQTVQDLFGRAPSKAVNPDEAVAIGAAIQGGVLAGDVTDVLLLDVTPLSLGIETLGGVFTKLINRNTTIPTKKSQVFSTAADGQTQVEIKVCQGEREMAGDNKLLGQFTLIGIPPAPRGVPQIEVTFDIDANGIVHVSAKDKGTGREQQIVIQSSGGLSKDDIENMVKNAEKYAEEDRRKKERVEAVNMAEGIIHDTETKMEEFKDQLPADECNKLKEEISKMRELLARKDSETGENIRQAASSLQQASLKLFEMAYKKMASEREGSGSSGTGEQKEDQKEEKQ
UniProt P38647, residues 47-679: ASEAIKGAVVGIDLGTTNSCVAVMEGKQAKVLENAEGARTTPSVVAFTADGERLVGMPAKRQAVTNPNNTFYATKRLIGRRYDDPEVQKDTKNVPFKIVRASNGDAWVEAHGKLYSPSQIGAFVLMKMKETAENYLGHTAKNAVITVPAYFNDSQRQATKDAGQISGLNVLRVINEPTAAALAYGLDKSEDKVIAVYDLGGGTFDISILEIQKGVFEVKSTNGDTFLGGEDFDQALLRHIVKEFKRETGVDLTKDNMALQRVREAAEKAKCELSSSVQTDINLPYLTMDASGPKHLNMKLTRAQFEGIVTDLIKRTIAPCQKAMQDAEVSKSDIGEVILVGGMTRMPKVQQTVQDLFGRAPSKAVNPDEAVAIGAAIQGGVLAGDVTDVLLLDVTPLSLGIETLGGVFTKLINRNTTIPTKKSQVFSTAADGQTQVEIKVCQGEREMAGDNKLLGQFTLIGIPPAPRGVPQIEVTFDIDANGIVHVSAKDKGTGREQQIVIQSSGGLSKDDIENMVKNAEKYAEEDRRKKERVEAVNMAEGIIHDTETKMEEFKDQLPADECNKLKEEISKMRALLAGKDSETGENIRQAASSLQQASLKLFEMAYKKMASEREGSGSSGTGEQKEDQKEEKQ

Residue numbers refer to the chain shown, from its start. No constants are given. Whether binding was seen depends on the method and setting. Binding seen in cells or lysates may run through a third protein. Some binding calls cover weakened binding; strength is not graded here. For some assays here: Where a sequence is shown, tags or fusion partners need not be part of it.

The target in assay [1] is T1, ANT2 expressed from a plasmid in HEK293T cells (not stated (human or mouse cDNA cloned)) (UniProt P05141).
T1 sequence: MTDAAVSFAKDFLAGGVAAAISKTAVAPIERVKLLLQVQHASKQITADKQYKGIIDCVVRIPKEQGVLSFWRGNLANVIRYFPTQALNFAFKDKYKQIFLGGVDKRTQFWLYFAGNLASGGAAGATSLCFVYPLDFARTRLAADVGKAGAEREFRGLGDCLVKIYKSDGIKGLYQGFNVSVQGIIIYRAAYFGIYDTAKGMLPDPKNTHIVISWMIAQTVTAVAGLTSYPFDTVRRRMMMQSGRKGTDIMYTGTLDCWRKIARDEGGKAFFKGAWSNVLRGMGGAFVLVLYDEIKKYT
In words: co-IP; two-step: HEK293T lysates (Myc-GRP75, ANT2, Flag-UCP1) on anti-Flag magnetic beads overnight, eluted with 1 mg/mL Flag polypeptide, second immunoprecipitation with anti-ANT2 or control IgG.

In assay [2] the target is T2, Flag-UCP1 expressed in HEK293T cells (UniProt P25874).
T2 sequence: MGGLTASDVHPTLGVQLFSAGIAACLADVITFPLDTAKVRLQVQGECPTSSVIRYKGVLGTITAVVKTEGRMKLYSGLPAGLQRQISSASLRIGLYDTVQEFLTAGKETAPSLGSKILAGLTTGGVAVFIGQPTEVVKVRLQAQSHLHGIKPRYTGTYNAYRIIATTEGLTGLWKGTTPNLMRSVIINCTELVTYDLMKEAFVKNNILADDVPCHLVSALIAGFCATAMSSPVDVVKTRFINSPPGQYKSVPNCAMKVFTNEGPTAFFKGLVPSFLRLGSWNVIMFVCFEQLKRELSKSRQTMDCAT
Described as above.

Assay [3] addresses T1, ANT2 expressed from a plasmid in HEK293T cells (not stated (human or mouse cDNA cloned)). In words: co-IP; immunoprecipitation against ANT2 from HEK293T cell lysates with or without transfection of Myc-GRP75.
The target of assay [4] is Myc-GRP75 expressed in HEK293T cells (not stated (human or mouse cDNA cloned)) (UniProt P38646). The experiment in a line: co-IP; lysates of HEK293T cells co-expressing Myc-GRP75, ANT2 and Flag-UCP1; immunoprecipitated with anti-Myc or anti-Flag antibodies.
Assay [5] deals with T3, Adenine nucleotide translocase 2 (ANT2), endogenous mouse (mouse (endogenous in adipose tissue and 3T3-L1 adipocytes)) (UniProt P51881).
T3 sequence: T1 sequence with L111R, R155K, V211F, T219S, G267S
In words: proximity ligation; Duolink PLA in fixed differentiated 3T3-L1 adipocytes treated with NC-EVs or GRP75-overexpressing EVs; pairs of primary antibodies (anti-GRP75 + anti-ANT2; anti-ANT2 + anti-UCP1).

In assay [6] the target is Glucose-regulated protein 75 (GRP75), endogenous mouse (mouse (endogenous in iWAT and 3T3-L1 adipocytes)) (UniProt P38647). The experiment in a line: co-IP; endogenous proteins in iWAT lysates of YES2 and LLC tumour-bearing mice; antibodies on protein A/G magnetic beads, overnight at 4 °C, washed ten times with lysis buffer; anti-IgG as negative control.
Assay [7] has the same target. In words: proximity ligation; Duolink PLA in fixed differentiated 3T3-L1 adipocytes treated with NC-EVs or GRP75-overexpressing EVs; pairs of primary antibodies (anti-GRP75 + anti-ANT2; anti-ANT2 + anti-UCP1).
Assay [8] has as its target Myc-GRP75 expressed in differentiated 3T3-L1 adipocytes (not stated (human or mouse cDNA cloned)) (UniProt P38647). The experiment in a line: co-IP; lysates of differentiated 3T3-L1 adipocytes cotransfected with Flag-ANT2 and Myc-GRP75 plasmids; protein A/G magnetic beads, overnight at 4 °C.

“Myc-GRP75 expressed in HEK293T cells (from UniProt P38646 47-679)”: the binding result in assay [1] and in assay [2] was “binds” throughout.

B1: Flag-UCP1 expressed in HEK293T cells (protein, UniProt P25874 1-307)
chain: T2 sequence
For B1, the binding result in assay [3] and in assay [4] was “binds” throughout.

B2: Uncoupling protein 1 (UCP1), endogenous mouse (protein, UniProt P12242 1-307)
chain: MVNPTTSEVQPTMGVKIFSAGVSACLADIITFPLDTAKVRLQIQGEGQASSTIRYKGVLGTITTLAKTEGLPKLYSGLPAGIQRQISFASLRIGLYDSVQEYFSSGRETPASLGNKISAGLMTGGVAVFIGQPTEVVKVRMQAQSHLHGIKPRYTGTYNAYRVIATTESLSTLWKGTTPNLMRNVIINCTELVTYDLMKGALVNNKILADDVPCHLLSALVAGFCTTLLASPVDVVKTRFINSLPGQYPSVPSCAMSMYTKEGPTAFFKGFVASFLRLGSWNVIMFVCFEQLKKELMKSRQTVDCTT
On to B2, for which, in assay [5], the binding entry is given as “binds”.

B3: Adenine nucleotide translocase 2 (ANT2), endogenous mouse (protein, UniProt P51881 1-298)
chain: T1 sequence with L111R, R155K, V211F, T219S, G267S
As to B3, the binding result in assay [6] and in assay [7] was “binds” throughout.

B4: Flag-ANT2 expressed in differentiated 3T3-L1 adipocytes (protein, UniProt P51881 1-298)
chain: T1 sequence with L111R, R155K, V211F, T219S, G267S
Take B4: the binding result in assay [8] is recorded as “binds”.
